Results on one molecule are retold here after patent US20220031857A1.

Sequences of proteins named here, by UniProt entry; tags and fusion partners are left off. Residues count along the entry.
UniProt Q62351, residues 89-763: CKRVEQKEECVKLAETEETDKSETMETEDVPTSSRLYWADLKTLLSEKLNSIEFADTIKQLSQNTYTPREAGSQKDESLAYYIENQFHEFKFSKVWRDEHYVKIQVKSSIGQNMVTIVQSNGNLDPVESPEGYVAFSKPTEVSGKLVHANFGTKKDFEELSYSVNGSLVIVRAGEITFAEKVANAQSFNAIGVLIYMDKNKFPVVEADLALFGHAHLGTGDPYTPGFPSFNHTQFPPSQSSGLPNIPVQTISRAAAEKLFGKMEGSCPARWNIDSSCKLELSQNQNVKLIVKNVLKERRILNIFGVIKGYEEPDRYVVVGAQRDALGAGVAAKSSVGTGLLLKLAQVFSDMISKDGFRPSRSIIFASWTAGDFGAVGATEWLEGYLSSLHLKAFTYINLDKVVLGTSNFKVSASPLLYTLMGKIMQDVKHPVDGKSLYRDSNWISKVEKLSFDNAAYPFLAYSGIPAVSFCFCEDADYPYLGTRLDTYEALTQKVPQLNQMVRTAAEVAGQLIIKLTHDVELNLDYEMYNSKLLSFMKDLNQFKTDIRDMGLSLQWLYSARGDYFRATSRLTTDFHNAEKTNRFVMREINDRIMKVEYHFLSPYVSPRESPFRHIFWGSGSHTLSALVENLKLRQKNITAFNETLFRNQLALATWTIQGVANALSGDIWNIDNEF

These are yes or no findings as the source states them, for the method shown. Some binding calls cover weakened binding; strength is not graded here.

Experiment [1] concerns the target recombinant human TfR1 (transferrin receptor 1) (human) (UniProt P02786). Description: phage ELISA. (An ELISA detects its analyte on a solid surface through an enzyme-linked reagent.)
For experiment [2], the target named is recombinant mouse TfR1 (transferrin receptor 1) (mouse) (UniProt Q62351). Description: phage ELISA.

B1: SEQ ID NO 46 (VNAR clone displayed on phage) (VNAR)
VNAR: ARVDQTPRSVTKETGESLTINCVLRDASYALGSTCWYRKKSGSTNEESISKGGRYVETVNSGSKSFSLRINDLTVEDGGTYRCGVCSDYGLQTTGQQAACGDGTAVTVNA
On to B1, for which the binding entry in experiment [1] and in experiment [2] was “binds” in each case.
